Laboratory results taken from doi:10.1101/710202.
No constants are given. Whether binding was seen depends on the method and setting. In cells and extracts the contact can be indirect. One block for each binder: values may come before it.

Target: Par3-APEX2-EGFP
Assay: co-IP

binding: no binding
B1: Occludin (protein, UniProt Q28269 1-521)
chain: MSSRPFESPPPYRPDEFKPNHYAPSNDVYGGDMHVRPMLSQPAYSFYPEDEILHFYKWTSPPGVIRILSMLVIVMCIAIFGCVASTLAWDRGYGTGLMGGSIGYPYGSGFGSYGTGYGYGFGYGYGYGGYTDPRAAKGFLLAMVAFCFIAALVIFVTSVIRSDISRTRRYYLTVIILSAFLGVMMFIATIVYIMGVNPTAQASGSLYSSQIYAMCNQFYASTATGLYMDQYLYHYCVVDPQEAIAIVLGFMVIVAFALIIFFAVKTRRKMDRYDKSNILWDKEHIYDEQPPNVEEWVKNVSAGTQDMPPPPSDYVERVDSPMAYSSNGKVNDKRLYPESSYKSTPVPEVVQELPATSPADDFRQPRYSSSGHLEPPSKRAPSKGRTGRPKRLEQDHYETDYTTGGESCDELEEDWIREYPPITSDQQRQLYKRNFDTGLQEYKSLQAELDEINKELSRLDKELDDYREESEEYMAAADEYNRLKQVKGSPDYKNKRNYCKQLKSKLSHIKKMVGDYDRQKT

binding: no binding
B2: ZO-2 (protein, UniProt Q95168 1-1174)
chain: MEELIWEQYTVTLQKDSKRGFGIAVSGGRDNPHFENGETSIVISDVLPGGPADGLLQENDRVVMVNGTPMEDVLHSFAVQQLRKSGKIAAIVVKRPRKVQLAPPQGSLPVDEDDRAFEVMDEFDGRSARSGYSERSRRSSHGGRSRSWEDSPERGRPHERAWSQERERSRGRSLERGLDHDDDYRRPRERSRGRSLERGLDHDDDYGRPGERSHGMSTDRGYDRGYDRGYDRGYDRTYSPEAEYGRRTQPDARHAGSRSRSREHLRSRSPSPELRGRPDHAGQPDSDRPIGVLLMKSKANEEYGLRLGSQIFIKQMTRTALATKDGNLHEGDIILKINGTVTENMSLTDARKLIEKSRGKLQLVVLRDSKQTLINIPSLNDSDSEIEDISEIESNRSFSPEERRQQYSDYDYHSSNEKLKERPNSREDMQNRWSRMGATPTPFKSMGDIASVVGTENSKEPRYQEEPPAPQPKAAPRTFLRPSPEDEAIYGPNTKMVRFKKGDSVGLRLAGGNDVGIFVAGIQEGTSAEQEGLQEGDQILKVNTQDFRGLVREDAVLYLLEIPKGEMVTILAQSRADVYRDILACGRGDSFFIRSHFECEKETPQSLAFSRGEVFRVVDTLYDGKLGHWLAVRIGNELEKGLIPNKSRAEQMASVQNAQRDNAGDRADFWRMRGQRSGMKKNLRKSREDLTAAVSVSTKFPAYERVLLREAGFKRPVVLFGPIADIALEKLANELPDLFQTAKTEPKDAGSEKSSGVVRLNTVRQIIEQDKHALLDVTPKAVDLLNYTQWFPIVIFFNPDSRQGVKTMRQRLNPTSNKSSRKLYDQANKLKKTCAHLFTATINLNSANDSWFGSLKDTIQHQQGEAVWVSEGKMEGMDDDPEDRMSYLTAMGADYLSCDSRLISDFEDTDGEGGAYTDNELDEPAEEPLVSSITRSSEPVQHEESIRKPSPEPRAQMRRAASRDQLRDSSPPPAFKPEPPKAKTQNREESFDISRSHDYKSNPSAVAGNEVSGASTRSCPPPIAAKPSFGRSILKPSTPVPSPESEEVGEGSEEQEGAPKSVLGKVKIFEKMDHKARLQRMQELQEAQNARIEIAQKHPDIYAVPIKTHKPDPGLSQHTSSRPPEPQKGPSRLYQDPRGSYGSDAEEEEYRQQLSEHSKRGYYSQPSRYRDTEL
